PubChem BioAssay AID1224830 – NIAID | 2016
Screen: 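Genes whose knock-down alters the TNF-alpha reporter response to LPS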 (primary screen). Cells: human THP-1 monocytic leukaemia cells, TNF dual-luciferase reporter clone, PMA-differentiated to macrophage-like cells. Reagent: siRNA pool against human genes, 50 nM. Duration: LPS for 4 h, given about 3 days after siRNA transfection. Challenge: bacterial LPS (TLR4 ligand), 10 ng/ml. Measured: 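TNF firefly reporter luminescence divided by renilla, normalised to the plate median, then turned into a robust z-score for each replicate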. Scale: TNF reporter robust z-score: higher = stronger TNF reporter response to LPS. Rule for the call: 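a well is active when its z-score exceeds 2.8 or falls below -1.5; control wells carry no call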.
Here is an unselected part of about 18,000 reagents tested. Of all reagents, about 2,900 (16%) got an active call. 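Calls are made per well; low scores hint the gene aids the LPS response, high scores that it dampens it.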 A number with no mark means an inactive call. Repeated entries: four replicate wells of each siRNA pool. No sequences are given here.

For IMP4 (IMP U3 small nucleolar ribonucleoprotein 4), the values are TNF reporter robust z-score 0.72.
Against IMP4 (IMP U3 small nucleolar ribonucleoprotein 4) the deposit lists TNF reporter robust z-score 1.61.
Silencing of IMP4 (IMP U3 small nucleolar ribonucleoprotein 4) resulted in: TNF reporter robust z-score 0.94.
Silencing of IMP4 (IMP U3 small nucleolar ribonucleoprotein 4) resulted in: TNF reporter robust z-score 1.19.
MYH13 (myosin heavy chain 13) scored TNF reporter robust z-score 0.54.
After knock-down of MYH13 (myosin heavy chain 13), the screen gave TNF reporter robust z-score -0.6.
Against MYH13 (myosin heavy chain 13) the deposit lists TNF reporter robust z-score -0.79.
After knock-down of MYH13 (myosin heavy chain 13), the record shows TNF reporter robust z-score 0.21.
Against CHDH (choline dehydrogenase), the entry reads TNF reporter robust z-score 2.29.
For CHDH (choline dehydrogenase), the entry reads TNF reporter robust z-score 0.87.
Depletion of CHDH (choline dehydrogenase) came out at: TNF reporter robust z-score -0.5.
After knock-down of CHDH (choline dehydrogenase), the record shows TNF reporter robust z-score 1.15.
SPAG9 (sperm associated antigen 9) scored TNF reporter robust z-score 0.26.
Knock-down of SPAG9 (sperm associated antigen 9) resulted in: TNF reporter robust z-score 2.13.
For SPAG9 (sperm associated antigen 9), the values are TNF reporter robust z-score 0.65.
Silencing of SPAG9 (sperm associated antigen 9) came out at: TNF reporter robust z-score 1.03.
For KCNRG (potassium channel regulator), the entry reads TNF reporter robust z-score -0.25.
Knock-down of KCNRG (potassium channel regulator) resulted in: TNF reporter robust z-score 1.72.
Knock-down of KCNRG (potassium channel regulator) gave: TNF reporter robust z-score -0.31.
Against KCNRG (potassium channel regulator) the deposit lists TNF reporter robust z-score 1.35.
Against HCN3, the values are TNF reporter robust z-score 0.57.
HCN3 scored TNF reporter robust z-score 1.38.
Against HCN3 the deposit lists TNF reporter robust z-score 0.12.
With knock-down of HCN3 the results were TNF reporter robust z-score -0.49.
For SAMD11 (sterile alpha motif domain containing 11), the values are TNF reporter robust z-score 1.71.
With knock-down of SAMD11 (sterile alpha motif domain containing 11), the record shows TNF reporter robust z-score 3.78 (active).
Depletion of SAMD11 (sterile alpha motif domain containing 11) came out at: TNF reporter robust z-score 1.09.
For SAMD11 (sterile alpha motif domain containing 11), the values are TNF reporter robust z-score 0.84.
For TRO (trophinin), the entry reads TNF reporter robust z-score -0.39.
Silencing of TRO (trophinin) gave: TNF reporter robust z-score -0.03.
Knock-down of TRO (trophinin) came out at: TNF reporter robust z-score -0.25.
After knock-down of GMIP (GEM interacting protein), the record shows TNF reporter robust z-score -0.88.
GMIP (GEM interacting protein) scored TNF reporter robust z-score -0.23.
With knock-down of GMIP (GEM interacting protein), the record shows TNF reporter robust z-score -0.81.
GMIP (GEM interacting protein) scored TNF reporter robust z-score -1.09.
With knock-down of UCHL1 (ubiquitin C-terminal hydrolase L1), the record shows TNF reporter robust z-score -0.09.
With knock-down of UCHL1 (ubiquitin C-terminal hydrolase L1) the results were TNF reporter robust z-score 0.04.
Against UCHL1 (ubiquitin C-terminal hydrolase L1) the deposit lists TNF reporter robust z-score -0.12.
UCHL1 (ubiquitin C-terminal hydrolase L1) scored TNF reporter robust z-score 0.69.
SALL1 (spalt like transcription factor 1) showed TNF reporter robust z-score 0.62.
Against SALL1 (spalt like transcription factor 1) the deposit lists TNF reporter robust z-score 1.29.
Silencing of SALL1 (spalt like transcription factor 1) gave: TNF reporter robust z-score 1.78.
SALL1 (spalt like transcription factor 1) scored TNF reporter robust z-score 2.1.
TMPRSS4 (transmembrane serine protease 4) scored TNF reporter robust z-score -0.13.
Against TMPRSS4 (transmembrane serine protease 4), the values are TNF reporter robust z-score 0.19.
TMPRSS4 (transmembrane serine protease 4) scored TNF reporter robust z-score 0.58.
TMPRSS4 (transmembrane serine protease 4) gave TNF reporter robust z-score 0.56.
